Assay results reported in the supplement of paper PMC12282887.
± gives the standard deviation of the averaged measurements. These are raw signals, not scaled to a control.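 The top concentration was set near the MIC for antimicrobials, at 500 µM for most other compounds, and up to 1 mM for known inducer-like compounds. Deletion strains started from a tenfold smaller inoculum, and wells growing below 10% of the overall median were treated as non-growing.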

Tested on: Escherichia coli BW25113
Test: growth (OD600 area under curve, 8 h) (OD600 x h); higher = more growth
Protocol: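 E. coli BW25113 reporter strains (wild type, ΔmarA, ΔsoxS, Δrob, each carrying one of 8 lux reporter plasmids) were grown in 40 µl LB in 384-well plates at 37°C, 800 rpm, with each compound at 4 two-fold concentrations, in biological duplicates. Growth is the baseline-corrected OD600 area under the curve over 8 h (0-8 h WT, 1-9 h deletion strains).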

COc1cc(/C=C/C(=O)CC(=O)/C=C/c2ccc(O)c(OC)c2)ccc1O [Curcumin]
growth
Conditions | reporter plasmid: EVC | reporter plasmid: acrABp | reporter plasmid: marRABp | reporter plasmid: micFp | reporter plasmid: ompFp | reporter plasmid: robp | reporter plasmid: soxSp | reporter plasmid: tolCp
23 µg/ml, genetic background: wild type | 2.8 ± 0.055 | 3.08 ± 0.22 | 2.84 ± 0.63 | 3.26 ± 0.28 | 3.2 ± 0.17 | 3.19 ± 0.43 | 3.11 ± 0.18 | 3.27 ± 0.079
23 µg/ml, genetic background: ΔmarA | 3.42 ± 0.79 | 3.439 ± 0.02 | 3.47 ± 0.46 | 3.36 ± 0.78 | 3.67 ± 0.65 | 4.13 ± 0.43 | 2.91 ± 0.64 | 3.16 ± 0.4
23 µg/ml, genetic background: Δrob | 2.98 ± 0.44 | 2.57 ± 0.51 | 3.09 ± 0.075 | 3.21 ± 0.2 | 2.45 ± 0.39 | 2.58 ± 0.36 | 3.03 ± 0.47 | 3.06 ± 0.046
23 µg/ml, genetic background: ΔsoxS | 3.26 ± 0.18 | 2.69 ± 0.19 | 2.81 ± 0.18 | 2.92 ± 0.058 | 3.34 ± 0.32 | 2.86 ± 0.26 | 2.77 ± 0.31 | 2.97 ± 0.2
46 µg/ml, genetic background: wild type | 2.67 ± 0.12 | 2.4 ± 1.1 | 3.0567 ± 0.0011 | 3.18 ± 0.18 | 2.74 ± 0.19 | 3.03 ± 0.16 | 3.19 ± 0.17 | 3.19 ± 0.15
46 µg/ml, genetic background: ΔmarA | 3.31 ± 0.45 | 3.34 ± 0.32 | 2.89 ± 0.42 | 3 ± 0.4 | 3.08 ± 0.37 | 3.65 ± 0.25 | 2.93 ± 0.5 | 2.96 ± 0.5
46 µg/ml, genetic background: Δrob | 2.97 ± 0.55 | 2.51 ± 0.41 | 3.22 ± 0.45 | 3.13 ± 0.17 | 2.3 ± 0.23 | 2.44 ± 0.63 | 2.98 ± 0.034 | 3.13 ± 0.15
46 µg/ml, genetic background: ΔsoxS | 3.213 ± 0.018 | 2.84 ± 0.28 | 2.86 ± 0.36 | 2.94 ± 0.057 | 2.97 ± 0.45 | 2.96 ± 0.078 | 2.88 ± 0.1 | 2.824 ± 0.026
92.1 µg/ml, genetic background: wild type | 2.68 ± 0.07 | 2.3 ± 0.56 | 2.32 ± 0.09 | 3.042 ± 0.029 | 2.81 ± 0.55 | 2.726 ± 0.012 | 3 ± 0.18 | 3.07 ± 0.09
92.1 µg/ml, genetic background: ΔmarA | 3.17 ± 0.57 | 3.41 ± 0.76 | 2.22 ± 0.46 | 3.2 ± 0.68 | 3.15 ± 0.15 | 3.71 ± 0.46 | 2.96 ± 0.52 | 2.98 ± 0.16
92.1 µg/ml, genetic background: Δrob | 3.02 ± 0.26 | 1.88 ± 0.43 | 2.77 ± 0.45 | 3.04 ± 0.11 | 1.85 ± 0.23 | 1.95 ± 0.41 | 2.95 ± 0.22 | 3.04 ± 0.15
92.1 µg/ml, genetic background: ΔsoxS | 3.2117 ± 0.001 | 2.76 ± 0.091 | 2.78 ± 0.43 | 2.98 ± 0.054 | 2.93 ± 0.49 | 3.07 ± 0.35 | 2.65 ± 0.57 | 3.01 ± 0.18
184.2 µg/ml, genetic background: wild type | 2.604 ± 0.017 | 2.07 ± 0.54 | 2.41 ± 0.59 | 3.09 ± 0.057 | 2.36 ± 0.11 | 2.97 ± 0.56 | 2.999 ± 0.0045 | 2.9 ± 0.37
184.2 µg/ml, genetic background: ΔmarA | 3.29 ± 0.71 | 2.68 ± 0.15 | 3.18 ± 0.25 | 2.94 ± 0.3 | 3.1 ± 0.34 | 3.71 ± 0.37 | 2.8 ± 0.64 | 2.94 ± 0.31
184.2 µg/ml, genetic background: Δrob | 2.97 ± 0.15 | 1.7 ± 0.92 | 2.35 ± 0.078 | 3.03 ± 0.39 | 2.24 ± 0.22 | 1.76 ± 0.16 | 2.77 ± 0.39 | 2.95 ± 0.14
184.2 µg/ml, genetic background: ΔsoxS | 3.239 ± 0.021 | 2.66 ± 0.32 | 2.55 ± 0.38 | 2.86 ± 0.18 | 2.93 ± 0.45 | 2.42 ± 0.22 | 2.59 ± 0.17 | 2.92 ± 0.14

NC1CONC1=O (stereo unspecified) [Cycloserine D]
growth
Conditions | reporter plasmid: EVC | reporter plasmid: acrABp | reporter plasmid: marRABp | reporter plasmid: micFp | reporter plasmid: ompFp | reporter plasmid: robp | reporter plasmid: soxSp | reporter plasmid: tolCp
1 µg/ml, genetic background: wild type | 3.09 ± 0.19 | 3.44 ± 0.32 | 3.39 ± 0.14 | 3.08 ± 0.19 | 3.42 ± 0.19 | 3.54 ± 0.078 | 3.186 ± 0.027 | 3.215 ± 0.024
1 µg/ml, genetic background: ΔmarA | 3.38 ± 0.53 | 4.33 ± 0.34 | 4 ± 0.23 | 3.28 ± 0.62 | 3.76 ± 0.6 | 4.2 ± 0.29 | 3.36 ± 0.52 | 3.16 ± 0.25
1 µg/ml, genetic background: Δrob | 3.12 ± 0.22 | 3.35 ± 0.31 | 3.57 ± 0.46 | 3.25 ± 0.2 | 2.96 ± 0.23 | 2.93 ± 0.29 | 2.97 ± 0.16 | 3.29 ± 0.23
1 µg/ml, genetic background: ΔsoxS | 3.37 ± 0.23 | 3.36 ± 0.63 | 3.36 ± 0.65 | 2.89 ± 0.14 | 3.21 ± 0.5 | 3.43 ± 0.35 | 3.25 ± 0.28 | 3.21 ± 0.17
1.9 µg/ml, genetic background: wild type | 2.707 ± 0.011 | 3.46 ± 0.14 | 3.34 ± 0.12 | 3.11 ± 0.24 | 3.279 ± 0.013 | 3.463 ± 0.0034 | 2.99 ± 0.13 | 3.175 ± 0.029
1.9 µg/ml, genetic background: ΔmarA | 3.18 ± 0.35 | 4.24 ± 0.35 | 3.78 ± 0.081 | 3.32 ± 0.6 | 3.68 ± 0.76 | 4.02 ± 0.32 | 3.12 ± 0.58 | 3.08 ± 0.2
1.9 µg/ml, genetic background: Δrob | 2.7 ± 0.3 | 2.95 ± 0.015 | 3.48 ± 0.22 | 2.97 ± 0.17 | 2.69 ± 0.34 | 2.8 ± 0.38 | 2.79 ± 0.21 | 3.05 ± 0.33
1.9 µg/ml, genetic background: ΔsoxS | 3.12 ± 0.2 | 3.12 ± 0.54 | 3.11 ± 0.8 | 2.69 ± 0.11 | 3.15 ± 0.39 | 3.18 ± 0.48 | 3.08 ± 0.57 | 2.83 ± 0.33
3.8 µg/ml, genetic background: wild type | 2.91 ± 0.0068 | 3.26 ± 0.31 | 3.34 ± 0.064 | 3 ± 0.07 | 3.27 ± 0.15 | 3.387 ± 0.022 | 3.05 ± 0.12 | 3.061 ± 0.025
3.8 µg/ml, genetic background: ΔmarA | 3.04 ± 0.43 | 3.91 ± 0.27 | 3.66 ± 0.15 | 3.18 ± 0.58 | 3.62 ± 0.59 | 4.01 ± 0.3 | 3.21 ± 0.58 | 3.06 ± 0.23
3.8 µg/ml, genetic background: Δrob | 3.07 ± 0.2 | 2.868 ± 0.022 | 3.32 ± 0.42 | 3 ± 0.14 | 2.76 ± 0.3 | 2.7 ± 0.26 | 2.741 ± 0.0099 | 3.19 ± 0.23
3.8 µg/ml, genetic background: ΔsoxS | 3.24 ± 0.2 | 3.36 ± 0.67 | 3.23 ± 0.7 | 2.88 ± 0.032 | 3.17 ± 0.14 | 3.25 ± 0.36 | 3.29 ± 0.29 | 3.03 ± 0.087
7.7 µg/ml, genetic background: wild type | 2.586 ± 0.0037 | 3.14 ± 0.21 | 2.76 ± 0.21 | 2.88 ± 0.085 | 2.727 ± 0.0029 | 3.04 ± 0.34 | 2.9 ± 0.067 | 2.99 ± 0.047
7.7 µg/ml, genetic background: ΔmarA | 2.98 ± 0.45 | 3.47 ± 0.3 | 3.266 ± 0.025 | 2.97 ± 0.73 | 3.26 ± 0.93 | 3.72 ± 0.58 | 2.83 ± 0.35 | 2.89 ± 0.23
7.7 µg/ml, genetic background: Δrob | 2.9 ± 0.41 | 2.74 ± 0.13 | 3.07 ± 0.7 | 2.93 ± 0.26 | 2.42 ± 0.16 | 2.5 ± 0.11 | 2.69 ± 0.042 | 3.07 ± 0.2
7.7 µg/ml, genetic background: ΔsoxS | 3.03 ± 0.14 | 3 ± 0.54 | 2.96 ± 0.8 | 2.6 ± 0.042 | 2.69 ± 0.65 | 2.84 ± 0.51 | 2.98 ± 0.41 | 2.93 ± 0.096
